Assay results

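Uptake of anthrax lethal toxin into cultured cells, read by FRET (460/530 nm ratio) and reported from the 460 nm channel; the cell line is not named here. Each compound was tested as a concentration series from about 0.0005 to 40 µM. The number is the fitted AC50 of the 460 nm signal alone; lower values mean a more potent effect. A falling signal goes with compounds filed as inhibitors or cytotoxic, a rising one with activators or fluorescent compounds (inferred from the filed classes).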

Values are in µM. Common to all entries: measured here: 460 nm channel. This is a side read-out of the assay, for part of the compounds, not drawn at random. A potency from a partial, single-point or poor curve is only a rough figure. The first word of each remark tells which way the curve ran; it can be opposite to the aim of the assay.

| # | SMILES | AC50 (µM) | remark |
|---|---|---|---|
| 1 | `S=C(S)N1CCCC1` | 19.95 | falling, single point |
| 2 | `c1cn(-c2ncnc3ccc(-c4ccoc4)cc23)cn1` | 10 | falling, partial curve |
| 3 | `CCCCOC(=O)c1cc2c(cn1)[nH]c1ccccc12` | 12.59 | falling, full curve, poor fit |
| 4 | `CC(C)OC(=O)c1cccc(C(=O)OCc2ccco2)n1` | 10 | rising, partial curve |
| 5 | `Cc1noc(C)c1C(=O)N1CCC[C@@]2(CCN(C(=O)Nc3cccc(F)c3)C2)C1` | 3.981 | falling, single point |
| 6 | `Cc1[nH]nc(-c2ccc(O)cc2O)c1-c1ccc(Cl)cc1` | 3.981 | falling, single point |
| 7 | `O=C(Nc1ncc(Br)s1)C(Cc1ccccc1)n1cccc1` (stereo not drawn) | 10 | falling, single point |
| 8 | `CCN(CC)c1ncnc2c1ncn2[C@@H]1O[C@@H](COP(=O)(O)OP(=O)(O)C(Br)(Br)P(=O)(O)O)[C@H](O)[C@H]1O` | 12.59 | rising, single point |
| 9 | `CCOC(=O)c1ccc(NC(=O)CSc2nc3c(c(=O)n2-c2ccccc2OC)SCC3)cc1` | 19.95 | falling, single point |
| 10 | `Cc1csc(SCC(=O)c2cc(C)n(Cc3cccs3)c2C)n1` | 0.05012 | falling, full curve, poor fit |
| 11 | `Cc1ccc(N2CCN(CCc3nc4cc(NS(C)(=O)=O)ccc4n3C)CC2)cc1` | 0.007943 | rising, full curve, poor fit |
| 12 | `Cc1cc2cc(CN(Cc3cccs3)Cc3nnnn3CC3CCCO3)c(=O)[nH]c2cc1C` (stereo not drawn) | 1 | rising, partial curve |
| 13 | `CC(C)CN1CC2(CCN(C(=O)c3cnccn3)CC2)C1` | 5.012 | falling, single point |
| 14 | `COc1ccccc1N=c1oc2cc(O)ccc2cc1C(N)=O` | 10 | rising, partial curve |
| 15 | `O=c1ccc2cc(O)c(O)cc2o1` | 10 | rising, partial curve |
| 16 | `c1csc(CNc2nc(-c3ccc4c(c3)OCO4)nc3ccccc23)c1` | 10 | falling, single point |
| 17 | `CC[C@H]1C2=C3C(CC[C@H]4C(OCc5ccc(F)cc5C(F)(F)F)OC[C@](C)([C@@H]34)N(C(=O)OC(C)(C)C)C2)C2COC(=O)OCC21` (stereo partly drawn) | 19.95 | rising, partial curve |
| 18 | `COc1cccc(-c2nc3ccc(O)cc3c(=O)o2)c1` | 0.5012 | rising, full curve, poor fit |
| 19 | `COC(=O)C1=C(N)Oc2cc(C)n(CC3CCCO3)c(=O)c2C1c1ccccc1` (stereo not drawn) | 31.62 | rising, single point |
| 20 | `COCC(=O)N1CCC[C@@]2(CCN(Cc3ccc(C#N)cc3)C2)C1` | 31.62 | falling, single point |
| 21 | `Cc1occc1-c1nnc(SCCCC(=O)c2ccc(F)cc2)n1C` | 0.1259 | rising, full curve, poor fit |
| 22 | `O=C(CSc1oc(-c2ccc(F)cc2)nc1S(=O)(=O)c1ccccc1)NCC1CCCO1` (stereo not drawn) | 0.003981 | falling, full curve, poor fit |
| 23 | `CCCn1c(NC(=O)C2CCN(S(=O)(=O)c3cccs3)CC2)nc2ccccc21` | 0.1995 | falling, partial curve |
| 24 | `CCNc1ncc2nc(-c3cccs3)c(=O)n(-c3ccccc3)c2n1` | 10 | rising, partial curve |
| 25 | `COc1ccc(NC(=O)c2ccco2)cc1NC(=O)c1ccc(C)cc1` | 10 | falling, partial curve |
| 26 | `CCOc1ccc(N2CC(C(=O)OC)CC2=O)cc1` (stereo not drawn) | 1 | falling, full curve, poor fit |
| 27 | `Cc1ccc(NC(=O)C2CCN(S(=O)(=O)c3c(C)n[nH]c3C)CC2)nc1` | 19.95 | rising, partial curve, poor fit |
| 28 | `CCOC(=O)c1c(NC(=O)CSc2nnc(CNc3ccc(OC)cc3)n2C)sc(C)c1C` | 6.31 | rising, partial curve |
| 29 | `CCOc1ccc(-n2c(-c3ccco3)n[nH]c2=S)cc1` | 0.02512 | rising, full curve, poor fit |
| 30 | `Nc1cc(=O)nc(SCc2ccccc2)n1Cc1ccco1` | 31.62 | rising, single point |
| 31 | `CCCCCC(=O)Nc1ccccc1N1CCN(c2ccccc2)CC1` | 7.943 | falling, partial curve |
| 32 | `CC(C)C1C(C#N)=C(N)Oc2n[nH]c(-c3cccs3)c21` (stereo not drawn) | 10 | rising, partial curve, poor fit |
| 33 | `Cc1csc(NC(=O)c2sc3nc(-c4cccs4)ccc3c2N)n1` | 1.995 | falling, full curve, poor fit |
| 34 | `CC(C)OC(=O)C(C#N)c1nc2ccccc2nc1N1CCN(Cc2ccccc2)CC1` (stereo not drawn) | 3.981 | rising, single point |
| 35 | `CCCC(C(=O)NC1CCCC1)N(C(=O)Cn1nnc(-c2ccc(C)o2)n1)C1CCCC1` (stereo not drawn) | 15.85 | rising, single point |
| 36 | `CCOC(=O)c1c(NC(=O)Cc2cccs2)sc(C)c1C` | 31.62 | falling, single point |
| 37 | `CCOC(=O)CNc1c(-c2ccc(Cl)cc2)nc2cnccn12` | 10 | rising, partial curve |
| 38 | `CCOC(=O)COc1ccc2nsnc2c1` | 19.95 | rising, single point |
| 39 | `O=c1[nH]c2c(s1)C(c1ccccc1)C1C3CCC(C3)C1S2` (stereo not drawn) | 10 | falling, partial curve |
| 40 | `CC(=O)N1C2(C=CC1(C)C(=O)NCc1ccccn1)CCCCC2` (stereo not drawn) | 12.59 | rising, single point |
| 41 | `O=C(O)c1cc(N=Nc2ccc([As](=O)(O)O)cc2)ccc1O` | 1 | falling, single point |
| 42 | `COC(=O)[C@@]1(Cc2ccc(F)cc2)[C@H]2c3cc(C(=O)N4CCCC4)n(CC4CC4)c3C[C@H]2CN1C(=O)c1ccccc1` | 15.85 | rising, partial curve |
| 43 | `C=CCSc1nnc(NC(=O)CSc2nc(CCC)cc(=O)[nH]2)s1` | 12.59 | rising, single point |
| 44 | `CC1(C)CC(=O)C2=C(C1)N(CCN1CCOCC1)C1=C(C(=O)CC(C)(C)C1)C2c1ccc(Cl)cc1` | 10 | rising, partial curve |
| 45 | `O=C1NC(=O)[C@@H]2C3c4ccccc4C=CN3[C@H](C(=O)c3cccs3)[C@H]12` (stereo partly drawn) | 1.259 | falling, full curve |
| 46 | `CCCCCCn1c(N)c(C(=O)NCCN2CCOCC2)c2nc3ccccc3nc21` | 12.59 | rising, partial curve |
| 47 | `CCN(CC)c1ccc(N=Cc2c(O)n(CCC3=CCCCC3)c(=O)[nH]c2=O)cc1` | 10 | rising, single point |
| 48 | `CCc1ccc(NC(=O)CSc2nnc(Cc3cccn3C)n2-c2ccc(OC)cc2)cc1` | 31.62 | falling, single point |
| 49 | `O=C(Nn1cnnc1)c1ccccc1-c1ccccc1` | 5.012 | falling, partial curve |
| 50 | `CCCCCc1c(C)nc(N2CCc3ccccc32)[nH]c1=O` | 0.01 | falling, full curve, poor fit |
| 51 | `C=C1C(=O)C=C2CN(C(=O)c3ccccc3)[C@@](Cc3ccc(F)cc3)(C(=O)OC)[C@@H]12` | 3.981 | falling, full curve |
| 52 | `COc1ccccc1-n1c(-c2cccnc2)n[nH]c1=S` | 0.007943 | falling, full curve |
| 53 | `CCOc1ccc(C2C(C(=O)OC)=C(C)N=C3SCCC(=O)N32)cc1OCC` (stereo not drawn) | 5.012 | rising, single point |
| 54 | `COc1cccc(NC2=CC(=O)CC(C)(C)C2)c1` | 31.62 | rising, single point |
| 55 | `COc1ccc2cc3c(N)nn(C(=O)Cc4ccccc4OC)c3nc2c1` | 15.85 | falling, partial curve |
| 56 | `COc1ccc([N+](=O)[O-])c2c1CCN2C(=O)CC[C@H](N)C(=O)O` | 12.59 | falling, single point |
| 57 | `Cc1cc2nn(-c3cccc4ccccc34)nc2cc1N` | 6.31 | rising, partial curve |
| 58 | `O=C1C(Cl)=C(N2CCCCC2)C(=O)N1c1ccccc1Cl` | 5.012 | falling, partial curve |

Repeated from the top, 4 entries:

| SMILES | AC50 (µM) | remark |
|---|---|---|
| `S=C(S)N1CCCC1` | 19.95 | falling, single point |
| `c1cn(-c2ncnc3ccc(-c4ccoc4)cc23)cn1` | 10 | falling, partial curve |
| `CCCCOC(=O)c1cc2c(cn1)[nH]c1ccccc12` | 12.59 | falling, full curve, poor fit |
| `CC(C)OC(=O)c1cccc(C(=O)OCc2ccco2)n1` | 10 | rising, partial curve |

From PubChem BioAssay record AID912 (NCATS, 2007).